doi:10.1101/2022.08.31.505651
No constants are given. Whether binding was seen depends on the method and setting. In cells and extracts the contact can be indirect. Some binding calls cover weakened binding; strength is not graded here. Where a sequence is shown, tags or fusion partners need not be part of it.

Target: T1, 3xFLAG-NEK1 R261H (human) (UniProt Q96PY6)
T1 sequence: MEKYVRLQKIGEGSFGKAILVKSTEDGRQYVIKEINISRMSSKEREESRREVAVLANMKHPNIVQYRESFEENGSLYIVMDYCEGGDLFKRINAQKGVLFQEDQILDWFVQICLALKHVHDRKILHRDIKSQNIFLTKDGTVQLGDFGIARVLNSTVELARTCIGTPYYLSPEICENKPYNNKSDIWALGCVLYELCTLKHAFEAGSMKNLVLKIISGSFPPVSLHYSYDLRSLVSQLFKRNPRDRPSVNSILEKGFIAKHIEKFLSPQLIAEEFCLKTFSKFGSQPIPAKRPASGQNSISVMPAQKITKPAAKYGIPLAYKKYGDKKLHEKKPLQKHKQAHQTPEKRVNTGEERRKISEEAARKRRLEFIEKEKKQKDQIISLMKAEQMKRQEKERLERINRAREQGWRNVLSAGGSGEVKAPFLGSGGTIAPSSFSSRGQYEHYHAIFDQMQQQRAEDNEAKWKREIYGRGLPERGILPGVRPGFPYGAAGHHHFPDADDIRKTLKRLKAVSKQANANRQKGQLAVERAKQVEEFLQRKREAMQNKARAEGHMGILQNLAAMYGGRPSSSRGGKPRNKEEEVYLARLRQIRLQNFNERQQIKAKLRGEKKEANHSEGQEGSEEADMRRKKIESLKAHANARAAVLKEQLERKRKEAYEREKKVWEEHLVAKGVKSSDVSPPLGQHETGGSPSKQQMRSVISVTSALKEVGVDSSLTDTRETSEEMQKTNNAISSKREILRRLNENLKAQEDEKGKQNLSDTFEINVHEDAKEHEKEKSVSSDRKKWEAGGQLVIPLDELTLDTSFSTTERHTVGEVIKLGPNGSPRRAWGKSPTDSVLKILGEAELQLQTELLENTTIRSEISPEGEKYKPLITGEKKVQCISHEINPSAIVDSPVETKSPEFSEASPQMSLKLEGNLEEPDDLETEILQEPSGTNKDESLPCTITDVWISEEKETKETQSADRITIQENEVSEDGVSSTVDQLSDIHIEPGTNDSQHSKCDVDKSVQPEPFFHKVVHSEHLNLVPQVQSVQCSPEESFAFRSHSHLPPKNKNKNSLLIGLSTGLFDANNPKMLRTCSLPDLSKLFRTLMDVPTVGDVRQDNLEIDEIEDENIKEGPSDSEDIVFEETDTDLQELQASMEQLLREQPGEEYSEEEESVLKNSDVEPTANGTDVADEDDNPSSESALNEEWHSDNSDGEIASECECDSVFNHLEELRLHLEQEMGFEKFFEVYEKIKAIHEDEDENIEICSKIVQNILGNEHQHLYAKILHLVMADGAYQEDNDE
Assay: co-IP

B1: 3xHA-C21ORF2 wild type (protein, UniProt O43822-1 1-256)
chain: MKLTRKMVLTRAKASELHSVRKLNCWGSRLTDISICQEMPSLEVITLSVNSISTLEPVSRCQRLSELYLRRNRIPSLAELFYLKGLPRLRVLWLAENPCCGTSPHRYRMTVLRTLPRLQKLDNQAVTEEELSRALSEGEEITAAPEREGTGHGGPKLCCTLSSLSSAAETGRDPLDSEEEATSGAQDERGLKPPSRGQFPSLSARDASSSHRGRNVLTAILLLLRELDAEGLEAVQQTVGSRLQALRGEEVQEHAE
- binding: binds
